From PubChem BioAssay AID2551 (National Center for Advancing Translational Sciences (NCATS), 2010)
In all, about 310,000 compounds went through this assay and about 17,000 (5.5%) were called active. This list was built around the results that the source calls inconclusive (neither active nor inactive); the mix of calls is not that of the screen. The call rests on the fitted dose curve; in most records, active means well fitted inhibition curve with a large enough effect; inconclusive means small, poorly fitted or top-dose-only effect, or effect the other way; inactive means no such curve, though single readings can be large or run the other way. A potency beside an inconclusive call is a rough fit, not a confirmed value.

Protein sequences, listed by entry. Tags and fused reporters are not part of them. Lines headed by an entry give the natural chain unless they say otherwise; changes in a name come on top.
UniProt P51450: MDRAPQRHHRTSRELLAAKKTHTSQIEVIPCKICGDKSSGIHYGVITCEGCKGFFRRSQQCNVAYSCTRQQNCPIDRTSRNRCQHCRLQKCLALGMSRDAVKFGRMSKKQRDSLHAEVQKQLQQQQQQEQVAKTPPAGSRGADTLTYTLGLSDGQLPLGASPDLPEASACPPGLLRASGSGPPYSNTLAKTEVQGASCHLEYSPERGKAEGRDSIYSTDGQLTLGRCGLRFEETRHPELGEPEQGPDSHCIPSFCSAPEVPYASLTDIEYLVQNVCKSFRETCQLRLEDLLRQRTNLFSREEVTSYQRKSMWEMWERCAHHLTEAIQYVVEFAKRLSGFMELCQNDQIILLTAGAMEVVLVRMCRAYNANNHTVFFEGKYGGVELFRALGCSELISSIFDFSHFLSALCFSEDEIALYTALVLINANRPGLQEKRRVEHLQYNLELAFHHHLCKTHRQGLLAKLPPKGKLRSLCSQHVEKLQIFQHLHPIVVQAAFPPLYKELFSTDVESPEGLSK

What follows are compounds tested against Nuclear receptor ROR-gamma (Mus musculus) (UniProt P51450) (assay: qHTS for inhibitors of ROR gamma transcriptional activity). Details: Drosophila S2 Gal4-RORgamma UAS-luciferase reporter, 20 h; activity change, negative = inhibition: at 53.6 µM (top of the series).
In short: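 A Gal4/UAS one-hybrid system in insect cells: metallothionein-promoter Gal4–ROR gamma fusion plus Photinus luciferase reporter. Copper sulfate 700 uM final, 20 hr ambient incubation, luminescent detection after 10 min with reagent.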
Further: nearly all actives have a fitted effect of over 60% in size.
On the % scale 0 is the no-effect control and ±100 the full control effect; potency means the concentration at half of the fitted maximal effect.

Potency, inconclusive:
COc1cc(C(C)=O)ccc1OCC(O)CN1CCN(c2ccc(F)cc2)CC1 (centres undefined) 6.31 µM [activator, single point]
CC(=O)NC(NC(=S)Nc1ccccc1Br)C(Cl)(Cl)Cl (centres undefined) 22.4 µM [inhibitor, single point]
COc1ccccc1NS(=O)(=O)c1cccc(NC(=O)c2ccc3ccccc3n2)c1 7.08 µM [activator, partial curve]
Clc1ccc(C2=NNC(=NCC3CCCO3)SC2)cc1 (centres undefined) 20 µM [inhibitor, single point]
CCc1cc(C(=O)Cc2cnn(-c3ccccc3)c2)c(O)cc1O 3.16 µM [inhibitor, single point]
N/C(Cc1cccs1)=N\OC(=O)COc1ccccc1 7.94 µM [activator, partial curve]
COc1ccc(/C(C)=N/NC(=O)c2nnn(-c3nonc3N)c2CN(C)c2ccccc2)cc1 31.6 µM [inhibitor, single point]
Cc1[nH]nc2c1C(c1cccs1)C(C#N)=C(N)O2 (centres undefined) 11.2 µM [inhibitor, single point]
Cc1cc(OCC(=O)Nc2cccc(S(=O)(=O)NC3=NCCCCC3)c2)ccc1Cl 11.2 µM [activator, single point]
COc1cccc(NS(=O)(=O)c2csc(C(N)=O)c2)c1 20 µM [activator, partial curve, poor fit]
CCCSc1cc(NCCOC(=O)CCC)c([N+](=O)[O-])c2nonc12 15.8 µM [inhibitor, single point]
Cc1cc[n+](CC(=O)Nc2ccccc2)cc1 1.26 µM [inhibitor, single point]
COc1cccc(C(=O)/C=C/Nc2ccc(S(=O)(=O)Nc3onc(C)c3C)cc2)c1 12.6 µM [activator, partial curve]
Cc1ccc(NC(=S)NCC23C=CC(O2)C2C(=O)N(c4ccc(C)cc4)C(=O)C23)cc1 (centres undefined) 25.1 µM [inhibitor, single point]
O=C(NCCNc1ccc([N+](=O)[O-])cc1C(F)(F)F)c1ccc(F)cc1 20 µM [activator, single point]
O=C(NC1CCCC1)c1cc(=O)[nH]c2ccccc12 0.501 µM [inhibitor, single point]
CCOc1ccc2cc(S(=O)(=O)N3CCCCC3)ccc2c1 20 µM [activator, single point]
CCCOc1ccc(-c2nnn(CC(=O)c3ccc4c(c3)OCCO4)n2)cc1 35.5 µM [activator, single point]
O=C(NCCN1C(=O)S/C(=C\c2ccccc2)C1=O)C1CCN(S(=O)(=O)c2cccs2)CC1 15.8 µM [activator, partial curve]
Cc1ccc(C(=O)NC(=C(Cl)Cl)S(=O)(=O)c2ccc(Cl)cc2)cc1 3.55 µM [activator, single point]
Cc1cc(Br)cc(Cl)c1OCC(=O)NC(=O)NCc1ccccc1 7.08 µM [inhibitor, full curve, poor fit]
Cn1c(=O)c(/C=C/c2ccccc2)nc2ccccc21 12.6 µM [activator, single point]
COc1ccc(N(C(=O)c2snc(C(N)=O)c2N)C(C(=O)NC2CCCC2)c2cccs2)c(OC)c1 (centres undefined) 20 µM [activator, single point]

Arranged by molar mass (rising): some entries from above
Potency, inconclusive:
CCc1cc(C(=O)Cc2cnn(-c3ccccc3)c2)c(O)cc1O 3.16 µM [inhibitor, single point]
O=C(NCCNc1ccc([N+](=O)[O-])cc1C(F)(F)F)c1ccc(F)cc1 20 µM [activator, single point]
Cc1ccc(C(=O)NC(=C(Cl)Cl)S(=O)(=O)c2ccc(Cl)cc2)cc1 3.55 µM [activator, single point]

Next part:

Potency, inactive:
CCCCCC(=O)NNC(=O)Cc1ccc([N+](=O)[O-])cc1
CCOc1ccc(/C=C2\SC(N3CCCCC3)=NC2=O)cc1
CCC1CCCCN1S(=O)(=O)c1ccc(NC(=O)C2CCN(C(=O)c3ccco3)CC2)cc1 (centres undefined)
CCOC(=O)c1c(C)nn(-c2ccc(NC(=O)c3cccs3)cc2)c1C
CC(C)(C)c1ccc(C2(C)NC(=O)NC2=O)cc1 (centres undefined)
CN(c1ccccc1)S(=O)(=O)c1cccc(NC(=O)CC(C)(C)C)c1
O=C(COC(=O)/C=C/c1cccc(Cl)c1)Nc1ccccc1-c1ccccc1
CCn1cc(CN2CCCC(CO)(Cc3ccc(F)cc3)C2)c2ccccc21 (centres undefined)
NC(=O)C1CC(=O)N(CCc2ccc(F)cc2)C1 (centres undefined)
O=C(Cc1c(O)c2ccccc2[nH]c1=O)OC1CCCCC1
C/C(=N\NC(N)=O)c1c(F)cccc1F
N#CC1=C(N)C(C#N)(C#N)[C@H](c2ccoc2)[C@H]2CN(Cc3ccccc3)CC=C12
Cc1ccc(C)c(C(=O)C(C)Sc2nc3nn(-c4ccccc4)c(=O)c-3c3n2CCCCC3)c1 (centres undefined)
CC(C)[C@H]1COCCS(=O)(=O)N1Cc1ccc(Cl)cc1
CCn1c(=O)cc(SCC(=O)Nc2ccc(C)cn2)c2ccccc21

Potency, active:
Cc1ccc(C(=O)NC(=S)Nc2ccc(S(=O)(=O)N(C)c3ccccc3)cc2)cc1 7.08 µM
COC(=O)c1ccc2c(=O)n(-c3ccc(OC)cc3)c(=S)[nH]c2c1 2.82 µM
CC(C)N(C(=S)NCc1ccccc1)c1ccccc1 7.94 µM
O=Cc1cccc(Oc2ccc([N+](=O)[O-])cc2[N+](=O)[O-])c1 14.1 µM
COc1cc2[nH]c(=S)nc(NCc3ccc(Cl)cc3)c2cc1OC 5.01 µM
COC(=O)NC(=S)Nc1ccc(Oc2ccc(Cl)cc2Cl)c(Cl)c1 2.24 µM
CN1CCN(C(=S)NC(=O)c2ccc(Cl)cc2)CC1 0.398 µM
O=C(Cn1cncn1)N/N=C/c1ccccc1O 8.91 µM
CN(Cc1nc2ccccc2n1C)c1ccccc1 11.2 µM
Cc1cccc(NC(=S)N2CCC(c3nc4ccccc4o3)CC2)c1C 10 µM

Activity change, negative = inhibition, inactive:
CCCCn1c(SCC(=O)Nc2cccc(C)n2)nnc1-c1ccco1 11.7% [at 10 µM]
